# Some of the results follow.
# Amino acid sequences for entries named in this document (tags omitted). A change or cut given only in a name is not applied to a line headed by its entry.
# UniProt Q9BVP2: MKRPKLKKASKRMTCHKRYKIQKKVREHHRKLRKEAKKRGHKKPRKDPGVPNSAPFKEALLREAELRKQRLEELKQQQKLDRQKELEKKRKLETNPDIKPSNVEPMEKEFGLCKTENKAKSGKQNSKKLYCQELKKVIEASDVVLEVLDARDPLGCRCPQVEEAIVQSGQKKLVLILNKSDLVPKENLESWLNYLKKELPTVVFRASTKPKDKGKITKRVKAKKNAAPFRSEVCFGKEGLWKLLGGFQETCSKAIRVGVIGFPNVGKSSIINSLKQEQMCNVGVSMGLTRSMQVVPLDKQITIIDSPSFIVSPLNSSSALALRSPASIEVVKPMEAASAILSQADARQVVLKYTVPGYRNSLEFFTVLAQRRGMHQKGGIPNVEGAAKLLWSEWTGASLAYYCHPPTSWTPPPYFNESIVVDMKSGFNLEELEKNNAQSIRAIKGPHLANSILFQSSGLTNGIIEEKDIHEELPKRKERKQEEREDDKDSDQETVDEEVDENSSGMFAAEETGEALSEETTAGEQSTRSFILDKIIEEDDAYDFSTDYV
# UniProt Q92896: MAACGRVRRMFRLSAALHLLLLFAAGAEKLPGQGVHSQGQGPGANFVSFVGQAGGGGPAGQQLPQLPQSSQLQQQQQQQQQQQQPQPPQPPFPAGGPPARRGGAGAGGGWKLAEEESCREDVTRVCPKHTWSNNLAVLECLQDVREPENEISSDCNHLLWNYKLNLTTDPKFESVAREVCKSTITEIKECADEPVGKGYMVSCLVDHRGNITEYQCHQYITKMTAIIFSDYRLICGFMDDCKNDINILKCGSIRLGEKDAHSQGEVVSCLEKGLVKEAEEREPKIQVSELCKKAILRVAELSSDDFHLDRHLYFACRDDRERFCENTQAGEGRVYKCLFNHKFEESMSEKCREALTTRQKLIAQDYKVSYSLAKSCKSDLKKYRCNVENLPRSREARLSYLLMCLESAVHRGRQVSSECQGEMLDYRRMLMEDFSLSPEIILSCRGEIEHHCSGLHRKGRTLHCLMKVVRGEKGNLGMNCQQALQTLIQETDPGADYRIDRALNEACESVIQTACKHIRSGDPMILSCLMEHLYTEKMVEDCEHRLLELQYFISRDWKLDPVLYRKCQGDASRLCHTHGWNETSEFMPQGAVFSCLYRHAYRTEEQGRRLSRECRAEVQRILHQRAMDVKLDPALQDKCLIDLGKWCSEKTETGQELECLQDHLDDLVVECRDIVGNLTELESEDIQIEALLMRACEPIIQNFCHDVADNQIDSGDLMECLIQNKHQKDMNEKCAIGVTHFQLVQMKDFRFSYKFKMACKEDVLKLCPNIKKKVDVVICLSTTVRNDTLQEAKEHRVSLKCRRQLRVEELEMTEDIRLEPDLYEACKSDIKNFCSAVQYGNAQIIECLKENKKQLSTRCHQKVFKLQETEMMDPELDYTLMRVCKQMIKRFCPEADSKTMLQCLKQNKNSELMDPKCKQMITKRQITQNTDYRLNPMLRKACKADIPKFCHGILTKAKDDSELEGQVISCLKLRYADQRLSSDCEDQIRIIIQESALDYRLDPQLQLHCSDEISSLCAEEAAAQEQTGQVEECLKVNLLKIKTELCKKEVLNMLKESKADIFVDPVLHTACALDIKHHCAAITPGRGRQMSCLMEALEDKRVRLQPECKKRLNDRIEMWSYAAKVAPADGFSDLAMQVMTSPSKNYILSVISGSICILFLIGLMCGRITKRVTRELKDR
# UniProt Q9P107: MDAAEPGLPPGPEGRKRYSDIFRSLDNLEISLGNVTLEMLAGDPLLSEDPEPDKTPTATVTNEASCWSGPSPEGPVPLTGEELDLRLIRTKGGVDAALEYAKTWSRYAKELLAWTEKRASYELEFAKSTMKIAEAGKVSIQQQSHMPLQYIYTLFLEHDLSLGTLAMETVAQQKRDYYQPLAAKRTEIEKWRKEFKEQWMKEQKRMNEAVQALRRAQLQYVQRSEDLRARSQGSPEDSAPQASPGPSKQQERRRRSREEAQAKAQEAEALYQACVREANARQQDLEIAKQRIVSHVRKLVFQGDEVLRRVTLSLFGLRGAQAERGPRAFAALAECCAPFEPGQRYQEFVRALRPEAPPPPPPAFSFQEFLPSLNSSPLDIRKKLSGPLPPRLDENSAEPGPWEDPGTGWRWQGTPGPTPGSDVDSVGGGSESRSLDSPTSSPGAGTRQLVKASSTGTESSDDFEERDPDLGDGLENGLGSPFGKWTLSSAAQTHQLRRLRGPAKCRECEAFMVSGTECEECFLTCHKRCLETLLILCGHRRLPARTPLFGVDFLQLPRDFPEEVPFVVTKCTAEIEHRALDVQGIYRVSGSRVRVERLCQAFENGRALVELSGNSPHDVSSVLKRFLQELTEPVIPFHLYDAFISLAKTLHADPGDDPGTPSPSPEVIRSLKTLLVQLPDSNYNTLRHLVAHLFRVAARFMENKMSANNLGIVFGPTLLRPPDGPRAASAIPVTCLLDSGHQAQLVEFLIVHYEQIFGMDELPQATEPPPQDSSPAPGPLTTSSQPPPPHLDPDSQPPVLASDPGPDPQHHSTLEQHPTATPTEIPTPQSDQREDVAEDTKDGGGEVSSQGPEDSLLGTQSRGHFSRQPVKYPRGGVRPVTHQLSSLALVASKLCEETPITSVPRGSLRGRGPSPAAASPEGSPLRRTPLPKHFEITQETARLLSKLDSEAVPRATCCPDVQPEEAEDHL
# UniProt P04899, whole entry, looked up: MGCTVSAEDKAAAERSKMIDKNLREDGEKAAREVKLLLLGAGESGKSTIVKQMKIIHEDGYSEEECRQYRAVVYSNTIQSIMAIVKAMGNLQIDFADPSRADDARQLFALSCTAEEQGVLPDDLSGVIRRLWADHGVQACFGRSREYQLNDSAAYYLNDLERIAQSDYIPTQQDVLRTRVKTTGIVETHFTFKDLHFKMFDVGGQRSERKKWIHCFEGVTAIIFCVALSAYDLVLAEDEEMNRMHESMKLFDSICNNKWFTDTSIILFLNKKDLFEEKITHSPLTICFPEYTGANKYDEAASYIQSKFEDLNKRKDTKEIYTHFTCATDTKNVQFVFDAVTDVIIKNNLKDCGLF
# UniProt O60234, whole entry, looked up: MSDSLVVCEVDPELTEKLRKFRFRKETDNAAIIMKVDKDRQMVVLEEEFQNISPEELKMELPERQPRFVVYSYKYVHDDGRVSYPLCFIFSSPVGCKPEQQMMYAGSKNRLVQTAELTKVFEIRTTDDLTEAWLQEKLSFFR
# UniProt Q14789: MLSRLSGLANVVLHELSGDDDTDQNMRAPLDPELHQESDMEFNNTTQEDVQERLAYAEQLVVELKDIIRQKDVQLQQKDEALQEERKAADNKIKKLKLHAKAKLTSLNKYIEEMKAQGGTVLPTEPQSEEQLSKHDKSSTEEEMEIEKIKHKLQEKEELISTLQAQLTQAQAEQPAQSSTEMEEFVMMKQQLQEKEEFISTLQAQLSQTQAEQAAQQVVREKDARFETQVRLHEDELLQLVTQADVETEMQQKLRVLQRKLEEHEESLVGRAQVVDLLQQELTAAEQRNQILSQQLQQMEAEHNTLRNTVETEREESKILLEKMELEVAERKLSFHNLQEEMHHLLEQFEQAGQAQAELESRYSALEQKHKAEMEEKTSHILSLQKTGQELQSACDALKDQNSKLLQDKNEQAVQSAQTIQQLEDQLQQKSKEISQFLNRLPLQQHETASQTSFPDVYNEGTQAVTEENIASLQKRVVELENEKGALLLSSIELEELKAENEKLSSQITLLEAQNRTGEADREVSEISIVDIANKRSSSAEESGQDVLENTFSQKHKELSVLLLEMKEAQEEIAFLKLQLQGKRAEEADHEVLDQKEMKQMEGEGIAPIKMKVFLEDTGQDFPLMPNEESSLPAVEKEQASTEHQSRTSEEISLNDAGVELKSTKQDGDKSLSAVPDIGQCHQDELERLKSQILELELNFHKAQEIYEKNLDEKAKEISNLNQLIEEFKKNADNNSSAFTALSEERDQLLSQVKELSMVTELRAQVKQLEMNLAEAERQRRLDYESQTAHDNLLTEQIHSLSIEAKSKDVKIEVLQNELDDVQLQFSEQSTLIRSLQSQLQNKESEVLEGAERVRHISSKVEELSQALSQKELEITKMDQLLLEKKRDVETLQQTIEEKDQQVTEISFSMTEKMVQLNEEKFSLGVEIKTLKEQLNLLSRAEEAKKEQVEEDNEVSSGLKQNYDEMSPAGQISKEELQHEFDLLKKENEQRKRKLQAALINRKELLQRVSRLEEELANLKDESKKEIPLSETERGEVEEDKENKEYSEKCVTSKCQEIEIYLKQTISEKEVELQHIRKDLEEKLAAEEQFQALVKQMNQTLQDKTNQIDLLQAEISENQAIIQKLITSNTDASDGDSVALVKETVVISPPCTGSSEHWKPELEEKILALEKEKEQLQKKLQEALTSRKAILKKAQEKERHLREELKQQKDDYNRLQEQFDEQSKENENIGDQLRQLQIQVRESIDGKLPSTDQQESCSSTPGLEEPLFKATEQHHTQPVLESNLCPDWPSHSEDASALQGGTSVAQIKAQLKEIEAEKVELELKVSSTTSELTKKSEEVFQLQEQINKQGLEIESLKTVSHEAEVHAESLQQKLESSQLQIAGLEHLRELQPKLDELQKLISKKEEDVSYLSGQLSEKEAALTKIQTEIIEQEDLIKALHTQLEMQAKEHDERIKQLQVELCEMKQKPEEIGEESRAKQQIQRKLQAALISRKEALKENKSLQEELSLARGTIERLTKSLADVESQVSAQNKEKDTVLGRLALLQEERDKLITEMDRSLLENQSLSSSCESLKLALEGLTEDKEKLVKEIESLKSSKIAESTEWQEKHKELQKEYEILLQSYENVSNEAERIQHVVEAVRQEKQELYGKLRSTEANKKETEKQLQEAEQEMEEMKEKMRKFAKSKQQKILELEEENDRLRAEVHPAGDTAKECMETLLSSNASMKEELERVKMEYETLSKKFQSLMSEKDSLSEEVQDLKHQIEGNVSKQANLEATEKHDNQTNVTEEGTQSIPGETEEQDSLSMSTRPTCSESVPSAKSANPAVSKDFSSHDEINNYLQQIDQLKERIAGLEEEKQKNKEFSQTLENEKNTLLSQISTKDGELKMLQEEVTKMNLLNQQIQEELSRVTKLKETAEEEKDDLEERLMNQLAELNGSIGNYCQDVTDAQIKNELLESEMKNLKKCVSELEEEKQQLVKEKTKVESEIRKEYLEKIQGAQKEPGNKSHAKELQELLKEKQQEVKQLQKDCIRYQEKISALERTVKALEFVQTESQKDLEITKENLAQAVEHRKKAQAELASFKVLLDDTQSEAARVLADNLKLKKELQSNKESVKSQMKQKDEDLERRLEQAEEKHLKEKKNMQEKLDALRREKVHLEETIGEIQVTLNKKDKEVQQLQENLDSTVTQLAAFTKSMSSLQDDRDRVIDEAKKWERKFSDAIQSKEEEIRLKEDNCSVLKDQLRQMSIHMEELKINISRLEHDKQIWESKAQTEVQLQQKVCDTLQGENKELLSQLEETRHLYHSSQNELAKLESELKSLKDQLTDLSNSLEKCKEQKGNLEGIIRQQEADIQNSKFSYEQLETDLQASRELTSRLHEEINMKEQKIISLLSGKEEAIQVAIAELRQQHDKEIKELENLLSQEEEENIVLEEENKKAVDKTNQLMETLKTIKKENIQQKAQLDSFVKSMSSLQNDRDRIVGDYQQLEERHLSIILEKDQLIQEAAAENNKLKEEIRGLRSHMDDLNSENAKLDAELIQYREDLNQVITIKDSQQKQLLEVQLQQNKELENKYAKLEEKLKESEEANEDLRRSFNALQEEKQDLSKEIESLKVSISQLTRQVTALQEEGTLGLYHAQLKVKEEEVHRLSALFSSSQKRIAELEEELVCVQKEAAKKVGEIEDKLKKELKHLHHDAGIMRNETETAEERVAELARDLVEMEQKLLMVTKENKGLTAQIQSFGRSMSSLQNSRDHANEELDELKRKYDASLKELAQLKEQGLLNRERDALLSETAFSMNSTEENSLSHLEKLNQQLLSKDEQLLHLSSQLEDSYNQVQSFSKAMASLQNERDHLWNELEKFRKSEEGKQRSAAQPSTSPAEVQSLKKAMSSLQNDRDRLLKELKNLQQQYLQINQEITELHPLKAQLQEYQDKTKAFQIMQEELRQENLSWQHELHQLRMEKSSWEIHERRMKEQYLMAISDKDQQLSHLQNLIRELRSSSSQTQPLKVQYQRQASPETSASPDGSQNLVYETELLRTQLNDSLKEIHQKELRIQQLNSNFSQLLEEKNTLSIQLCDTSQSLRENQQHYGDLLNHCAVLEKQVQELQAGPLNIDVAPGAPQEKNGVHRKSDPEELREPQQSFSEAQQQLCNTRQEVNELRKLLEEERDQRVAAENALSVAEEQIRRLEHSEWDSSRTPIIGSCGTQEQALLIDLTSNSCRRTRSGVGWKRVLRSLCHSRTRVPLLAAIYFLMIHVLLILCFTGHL
# Compound: Cc1cc(ccc1-c1ccccc1)C(=O)N1CCCN(CC1)C(=O)CCl [compound 10]
# Assay: probe-labelled cysteine peptide fold change vs DMSO (competition) (log2 fold change); higher = less target engagement (more negative = stronger competition)
# Details: THP-1, incubation time: 4 h
# 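Further: competitive profiling in live THP-1 cells: cysteine peptides tagged with an iodoacetamide desthiobiotin (IA-DTB) probe, intensity after compound treatment relative to DMSO-treated cells.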
target,measurement,setting,value
GNL3_Q9BVP2_158_CPQVEEAIVQSGQK (UniProt Q9BVP2),probe-labelled cysteine peptide fold change,10 µM,-0.0215
same,probe-labelled cysteine peptide fold change,50 µM,-0.136
GOPC_Q9HD26_76_MTSLSSCFAQLCHK (UniProt Q9HD26),probe-labelled cysteine peptide fold change,10 µM,-0.184
same,probe-labelled cysteine peptide fold change,50 µM,-0.0809
GNPNAT1_Q96EK6_128_VEDVVVSDECR (UniProt Q96EK6),probe-labelled cysteine peptide fold change,10 µM,0.0948
same,probe-labelled cysteine peptide fold change,50 µM,0.203
GLG1_Q92896_1071_ADIFVDPVLHTACALDIK (UniProt Q92896),probe-labelled cysteine peptide fold change,10 µM,-0.343
same,probe-labelled cysteine peptide fold change,50 µM,-0.187
GMIP_Q9P107_508_ECEAFMVSGTECEECFLTCHK (UniProt Q9P107),probe-labelled cysteine peptide fold change,10 µM,-0.25
same,probe-labelled cysteine peptide fold change,50 µM,-0.091
GNAI2_P04899_140_LWADHGVQACFGR (UniProt P04899),probe-labelled cysteine peptide fold change,10 µM,0.0426
same,probe-labelled cysteine peptide fold change,50 µM,0.0337
GNL3L_Q9NVN8_518_SNSMVDVCSVDR (UniProt Q9NVN8),probe-labelled cysteine peptide fold change,10 µM,0.104
same,probe-labelled cysteine peptide fold change,50 µM,-0.177
GMFG_O60234_8_SDSLVVCEVDPELTEK (UniProt O60234),probe-labelled cysteine peptide fold change,10 µM,-0.0128
same,probe-labelled cysteine peptide fold change,50 µM,0.148
GNAI2_P04899_326_EIYTHFTCATDTK (UniProt P04899),probe-labelled cysteine peptide fold change,10 µM,0.0663
same,probe-labelled cysteine peptide fold change,50 µM,-0.0637
GNAI3_P08754_66_IIHEDGYSEDECK (UniProt P08754),probe-labelled cysteine peptide fold change,10 µM,0.0891
same,probe-labelled cysteine peptide fold change,50 µM,0.144
GOLGB1_Q14789_1964_CVSELEEEK (UniProt Q14789),probe-labelled cysteine peptide fold change,10 µM,0.0765
same,probe-labelled cysteine peptide fold change,50 µM,0.0918
GNL2_Q13823_336_VCNVAPIAGETK (UniProt Q13823),probe-labelled cysteine peptide fold change,10 µM,-0.0796
same,probe-labelled cysteine peptide fold change,50 µM,-0.195
GLMN_Q92990_406_CLLNTSNHSGVEAFIIQNIK (UniProt Q92990),probe-labelled cysteine peptide fold change,10 µM,0.161
same,probe-labelled cysteine peptide fold change,50 µM,-0.0896
GOPC_Q9HD26_408_LYLDELEGGGNPGASCK (UniProt Q9HD26),probe-labelled cysteine peptide fold change,10 µM,-0.33
same,probe-labelled cysteine peptide fold change,50 µM,-0.268
GOT2_P00505_106_EYLPIGGLAEFCK (UniProt P00505),probe-labelled cysteine peptide fold change,10 µM,0.0899
same,probe-labelled cysteine peptide fold change,50 µM,0.102

# Another view of part of the listing above.
target	measurement	setting	value
GMIP_Q9P107_508_ECEAFMVSGTECEECFLTCHK (UniProt Q9P107)	probe-labelled cysteine peptide fold change	50 µM	-0.091
GNAI2_P04899_140_LWADHGVQACFGR (UniProt P04899)	probe-labelled cysteine peptide fold change	10 µM	0.0426
